This note sets out measurements from PMC7057996, “Human glutaredoxin-1 can transfer copper to isolated metal binding domains of the P1B-type ATPase, ATP7B” (Scientific Reports, 2020).

The chains behind the UniProt entries cited, without tags or fusion partners.
UniProt P35754: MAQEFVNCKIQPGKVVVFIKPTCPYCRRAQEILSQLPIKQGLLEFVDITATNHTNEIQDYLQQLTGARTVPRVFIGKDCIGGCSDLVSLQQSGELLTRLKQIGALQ

These are yes or no findings as the source states them, for the method shown. Some results given as binding are weak or reduced against the parent protein; the word gives no strength.

This assay has as its target human glutaredoxin-1 (human) (UniProt P35754). Nature of the assay: NMR titration; 15N-1H HSQC of 15N-Cu(I)-hGrx1 (320-350 uM) titrated with unlabelled apo-Atox1 or apo-WLN5-6 to final ratios 3.8:1 and 7.1:1 (partner:hGrx1); Cu is transferred to the partner during the titration; 4 °C; 10 mM MES/Na, 50 mM NaCl, 1 mM TCEP, pH 6.0; both purified.

B1: ATP7B metal binding domains 5-6 (domain or fragment, UniProt P35670 486-633)
chain: APQKCFLQIKGMTCASCVSNIERNLQKEAGVLSVLVALMAGKAEIKYDPEVIQPLEIAQFIQDLGFEAAVMEDYAGSDGNIELTITGMTCASCVHNIESKLTRTNGITYASVALATSKALVKFDPEIIGPRDIIKIIEEIGFHASLAQ
For the molecule B1, the binding entry is given as “binds weakly”.
